Source: paper PMC10157619
Results are given in words; binding and its absence hold for the method and conditions named. Binding seen in cells or lysates may run through a third protein. Some entries that bind do so weakly or less than the wild type.

By UniProt entry, the sequences of proteins in these tests, tags left out.
UniProt P10085: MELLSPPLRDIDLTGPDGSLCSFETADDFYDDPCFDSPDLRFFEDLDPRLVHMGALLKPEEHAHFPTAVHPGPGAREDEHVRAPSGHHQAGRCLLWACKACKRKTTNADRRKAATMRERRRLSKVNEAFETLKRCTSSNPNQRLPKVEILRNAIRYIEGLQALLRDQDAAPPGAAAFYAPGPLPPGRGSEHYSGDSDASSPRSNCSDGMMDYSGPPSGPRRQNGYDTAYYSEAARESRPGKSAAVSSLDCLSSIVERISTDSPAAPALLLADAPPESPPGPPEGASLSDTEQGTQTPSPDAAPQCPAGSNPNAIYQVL

Target: MyoD (mouse (endogenous in C2C12)) (UniProt P10085)
Assay: co-IP; lysates of C2C12 cells differentiated for 1 d; Dynabeads Protein G coated with anti-Deltex2 or anti-MyoD antibody, lysate incubated overnight at 4°C, 3 washes; western blot

B1: Deltex2 (protein, UniProt Q8R3P2-1 1-619)
chain: MAMAPSSSLPQVYPSHVVVAVWEWQDGLGIWHPYSATVCSFIEQHFVRQRGQHFGLGSLAHSIPLGQADPSLAPYIIDLPSWTQFRQNTGTMRSVRRHLFSQNSAPGQGIVWEWLGDDGSWVAYEARICDYLEQQVARGIQVVDLAPLGYNYTVNYATLTQTNKTSSFCRSVRRQVGPVYPVTSDIAVPRQMGLICFCQQCLHGSGTGPVSGRYRHSMTNLPAYPAPQAPHRTTTVSGAHQAFAPYNKPSLSGARSAPRLNTTNPWAAAPPVAGNQSLFHSSLSHLGPQLLPSGPSTSSGASASFPSGPSSSSPGSAPTTVPVQMPKASRVQQALAGMTSVLSAIGLPVCLSRAPRPTGPPASRPASKSHSSVKRLRKMSVKEGAPKPEPEQVIRKYTEELKVAPEEDCIICMEKLAVASGYSDMTDSKALGPMVVGRLTKCSHAFHLLCLLAMYCNGNKDGSLQCPSCKTIYGEKTGTQPWGKMEVFRFQMSLPGHEDCGTILIVYNIPHGIQGPEHPSPGKPFTARGFPRQCYLPDSPQGRKVLELLKVAWKRRLIFTVGTSSTTGETDTVVWNEIHHKTEMDRNVTGHGYPDPNYLQNVLAELAAQGVTEDCLEQQ
binding: binds
